Measurements as given in paper PMC12671161.
These are yes or no findings as the source states them, for the method shown. Binding seen in cells or lysates may run through a third protein. Some entries that bind do so weakly or less than the wild type. Sequences can lack the tags named with a protein.

Biological target: T1, Flag-IRF3 (UniProt Q14653)
T1 sequence: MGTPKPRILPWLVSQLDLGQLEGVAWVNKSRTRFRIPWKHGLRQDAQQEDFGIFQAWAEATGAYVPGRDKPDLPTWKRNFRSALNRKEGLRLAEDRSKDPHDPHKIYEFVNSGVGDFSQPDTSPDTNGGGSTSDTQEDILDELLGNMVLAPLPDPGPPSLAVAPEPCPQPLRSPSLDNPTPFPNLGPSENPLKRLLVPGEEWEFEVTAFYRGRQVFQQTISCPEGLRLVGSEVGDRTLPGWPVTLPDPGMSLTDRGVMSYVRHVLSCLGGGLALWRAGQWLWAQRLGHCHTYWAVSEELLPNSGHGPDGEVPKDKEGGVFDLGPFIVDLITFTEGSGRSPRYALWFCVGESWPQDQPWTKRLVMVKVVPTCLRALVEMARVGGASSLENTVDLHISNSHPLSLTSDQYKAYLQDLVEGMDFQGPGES
Assay: co-IP

binding: binds
B1: HA-TBK1 (enzyme, UniProt Q9UHD2 1-729)
chain: MQSTSNHLWLLSDILGQGATANVFRGRHKKTGDLFAIKVFNNISFLRPVDVQMREFEVLKKLNHKNIVKLFAIEEETTTRHKVLIMEFCPCGSLYTVLEEPSNAYGLPESEFLIVLRDVVGGMNHLRENGIVHRDIKPGNIMRVIGEDGQSVYKLTDFGAARELEDDEQFVSLYGTEEYLHPDMYERAVLRKDHQKKYGATVDLWSIGVTFYHAATGSLPFRPFEGPRRNKEVMYKIITGKPSGAISGVQKAENGPIDWSGDMPVSCSLSRGLQVLLTPVLANILEADQEKCWGFDQFFAETSDILHRMVIHVFSLQQMTAHKIYIHSYNTATIFHELVYKQTKIISSNQELIYEGRRLVLEPGRLAQHFPKTTEENPIFVVSREPLNTIGLIYEKISLPKVHPRYDLDGDASMAKAITGVVCYACRIASTLLLYQELMRKGIRWLIELIKDDYNETVHKKTEVVITLDFCIRNIEKTVKVYEKLMKINLEAAELGEISDIHTKLLRLSSSQGTIETSLQDIDSRLSPGGSLADAWAHQEGTHPKDRNVEKLQVLLNCMTEIYYQFKKDKAERRLAYNEEQIHKFDKQKLYYHATKAMTHFTDECVKKYEAFLNKSEEWIRKMLHLRKQLLSLTNQCFDIEEEVSKYQEYTNELQETLPQKMFTASSGIKHTMTPIYPSSNTLVEMTLGMKKLKEEMEGVVKELAENNHILERFGSLTMDGGLRNVDCL
